Measurements published in PMC12305565.
These are yes or no findings as the source states them, for the method shown. Binding seen in cells or lysates may run through a third protein. Binding can be weak; no strength is given.

Biological target: T1, C-C motif chemokine receptor 1 (CCR1) (human (endogenous in ESCC cells)) (UniProt P32246)
T1 sequence: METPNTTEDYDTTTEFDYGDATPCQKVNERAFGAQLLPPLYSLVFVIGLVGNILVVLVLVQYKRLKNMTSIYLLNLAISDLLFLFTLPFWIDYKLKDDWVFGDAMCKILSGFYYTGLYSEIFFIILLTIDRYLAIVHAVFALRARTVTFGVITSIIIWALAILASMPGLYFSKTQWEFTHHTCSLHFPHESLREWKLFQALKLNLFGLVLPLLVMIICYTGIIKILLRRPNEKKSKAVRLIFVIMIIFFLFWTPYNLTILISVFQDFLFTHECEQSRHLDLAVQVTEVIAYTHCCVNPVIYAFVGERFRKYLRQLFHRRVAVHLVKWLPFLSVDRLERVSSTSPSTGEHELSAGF
Experiment: co-IP; in ESCC cells; bait, antibodies and buffer not told in the text shown (Figure S2A-S2B)

binding: binds
Substance: chemokine (C-C motif) ligand 15 (CCL15) (human (endogenous in ESCC cells))
